Reference: article PMC6021170

Key:
human corin WT (human) = biological target: T1, human corin WT (human) (UniProt Q9Y5Q5); assay: co-IP; lysates of transfected HEK293 cells immunoprecipitated with anti-V5 antibody and protein A-Sepharose; co-precipitated endogenous chaperones detected by western blotting and densitometry; cells without or with DNJ (2 mM, 37°C, 24-48 hr)
T1 sequence: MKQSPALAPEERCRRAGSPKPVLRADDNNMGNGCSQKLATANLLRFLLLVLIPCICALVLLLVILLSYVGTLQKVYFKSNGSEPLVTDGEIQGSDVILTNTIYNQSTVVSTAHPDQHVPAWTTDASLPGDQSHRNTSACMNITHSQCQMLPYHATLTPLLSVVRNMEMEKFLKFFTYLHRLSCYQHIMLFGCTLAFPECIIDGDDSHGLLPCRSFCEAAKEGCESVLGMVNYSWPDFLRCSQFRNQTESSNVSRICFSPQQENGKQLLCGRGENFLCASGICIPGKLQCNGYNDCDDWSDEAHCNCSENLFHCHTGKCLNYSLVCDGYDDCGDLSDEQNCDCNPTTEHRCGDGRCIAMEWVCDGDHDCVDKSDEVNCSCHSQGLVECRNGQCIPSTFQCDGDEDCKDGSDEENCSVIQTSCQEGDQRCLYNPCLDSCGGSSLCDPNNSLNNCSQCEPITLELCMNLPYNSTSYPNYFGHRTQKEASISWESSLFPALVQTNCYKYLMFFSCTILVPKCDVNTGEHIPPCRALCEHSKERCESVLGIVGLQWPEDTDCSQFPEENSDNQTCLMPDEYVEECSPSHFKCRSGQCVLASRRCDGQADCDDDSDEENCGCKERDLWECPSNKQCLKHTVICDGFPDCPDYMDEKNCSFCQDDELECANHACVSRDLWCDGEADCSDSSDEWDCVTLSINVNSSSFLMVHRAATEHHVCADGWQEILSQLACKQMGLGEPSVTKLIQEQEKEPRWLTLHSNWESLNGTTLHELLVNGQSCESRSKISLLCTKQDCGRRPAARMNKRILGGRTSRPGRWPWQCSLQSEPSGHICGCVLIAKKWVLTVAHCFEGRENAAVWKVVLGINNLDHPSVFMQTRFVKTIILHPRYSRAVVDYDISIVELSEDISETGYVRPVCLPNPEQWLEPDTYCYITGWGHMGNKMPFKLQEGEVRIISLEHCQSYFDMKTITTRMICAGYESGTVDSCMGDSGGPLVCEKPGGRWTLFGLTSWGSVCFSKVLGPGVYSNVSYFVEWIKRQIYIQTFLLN

[1] = biological target: T2, human corin mutant N1022Q (human) (UniProt Q9Y5Q5); assay: as above
T2 sequence: T1 sequence with N1022Q

In the case of HSP70 (human (endogenous in HEK293)), the binding (human corin WT (human)) is reported as “binds” and the binding [1] is reported as “binds”.

Positions count from the first letter of the chain named. Results are given in words; binding and its absence hold for the method and conditions named. In cells and extracts the contact can be indirect. Binding calls can cover weak binding; strength is not graded here.
